# The list shows a part of the results.
# Compound: Cc1cc(ccc1-c1ccccc1)C(=O)N1CCCN(CC1)C(=O)CCl [compound 10]
# Experiment: probe-labelled cysteine peptide fold change vs DMSO (competition) (log2 fold change); higher = less target engagement (more negative = stronger competition)
# Conditions: THP-1, incubation time: 4 h
# 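Further: competitive profiling in live THP-1 cells: cysteine peptides tagged with an iodoacetamide desthiobiotin (IA-DTB) probe, intensity after compound treatment relative to DMSO-treated cells.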
Target,probe-labelled cysteine peptide fold change (10 µM),probe-labelled cysteine peptide fold change (50 µM)
NUDT2_P50583_123_WLGLEEACQLAQFK (UniProt P50583),-0.122,0.0127
NUP205_Q92621_1275_LLQCLHAK (UniProt Q92621),0.0221,0.00907
OGA_O60502_596_ANSSVVSVNCK (UniProt O60502),-0.215,-0.408
NUDT6_P53370_44_NPPVGACDLQGELDR (UniProt P53370),-0.344,-0.949
NUP160_Q12769_1166_RNHDGECTAAPTNR (UniProt Q12769),-0.145,-0.199
NUBP2_Q9Y5Y2_269_ILDATPACLP (UniProt Q9Y5Y2),-0.1,-0.133
OGDH_Q02218_802_FLQMCNDDPDVLPDLK (UniProt Q02218),-0.0106,0.0622
NUDT14_O95848_127_EAWEECGYHLAPSDLRR (UniProt O95848),-0.121,-0.154
NUP160_Q12769_558_FYACCLQYQEALSHPLALHLNPHTNMVCLLK (UniProt Q12769),0.194,0.31
NUP153_P49790_874_CLACESAKPGTK (UniProt P49790),0.15,-0.253
NUP88_Q99567_155_STVNCSTTPVAER (UniProt Q99567),-0.187,0.0547
NUFIP2_Q7Z417_234_GCENLNIVQDK (UniProt Q7Z417),-0.0267,-0.0796
NUP107_P57740_442_QLLPVCDTWEDTVWAYFR (UniProt P57740),0.39,0.267
NUP88_Q99567_608_QLEDLSYCR (UniProt Q99567),-0.218,0.0469
NUP37_Q8NFH4_96_FCTSAADMK (UniProt Q8NFH4),0.068,-0.0419
NUP93_Q8N1F7_328_CGDLLAASQVVNR (UniProt Q8N1F7),-0.0388,0.214
OAS1_P00973_25_FIEDYLLPDTCFR (UniProt P00973),-0.402,-0.388
NUP98_P52948_1419_KQINVCSQLDWK (UniProt P52948),-0.217,0.161
NUDCD1_Q96RS6_67_LRDDQYTLEHMHAFGMYNYLHCDSWYQDSVYYIDTLGR (UniProt Q96RS6),0.189,0.42
NUP155_O75694_356_SVFKPIVQIAVIENSESLDCQLLAVTHAGVR (UniProt O75694),0.0396,0.0661
NUDT18_Q6ZVK8_241_LLQECLTLHHLVVEIK (UniProt Q6ZVK8),-0.00533,0.35

Target,probe-labelled cysteine peptide fold change (10 µM),probe-labelled cysteine peptide fold change (50 µM)
OLA1_Q9NTK5_187_LKPEYDIMCK (UniProt Q9NTK5),-0.186,-0.101
NUP155_O75694_551_LHQEDQACATCLILACSTAACDREVSAWATR (UniProt O75694),0.0968,0.148
OLA1_Q9NTK5_187_KLKPEYDIMCK (UniProt Q9NTK5),-0.145,-0.776
NUP93_Q8N1F7_397_CDVTDNQSEVADK (UniProt Q8N1F7),-0.073,0.331
NUMA1_Q14980_961_QFCSTQAALQAMER (UniProt Q14980),-0.0783,-1.25
NUP210_Q8TEM1_746_FVCAPPSR (UniProt Q8TEM1),0.133,0.305
NUDT12_Q9BQG2_247_QRHENCYFLHPPMPALLQLK (UniProt Q9BQG2),-0.0681,-0.116
NXF1_Q9UBU9_373_LDGHELPPPIAFDVEAPTTLPPCK (UniProt Q9UBU9),-0.00163,0.112
OAT_P04181_150_VLPMNTGVEAGETACK (UniProt P04181),0.0523,0.0515
NUDCD1_Q96RS6_111_EVFRLPTDLTACDNR (UniProt Q96RS6),-0.159,-0.335
NUP93_Q8N1F7_522_SSGQSAQLLSHEPGDPPCLR (UniProt Q8N1F7),-0.509,-0.756
OGT_O15294_44_HCMQLWR (UniProt O15294),0.214,0.192
OCRL_Q01968_64+82_CVQEAEETLLIDIASNSGCK (UniProt Q01968),-0.0892,-0.302
NUP210_Q8TEM1_1611_EVIQALHPETLISCQSQFK (UniProt Q8TEM1),-0.0849,0.506
OAS2_P29728_652_TRPVILDPAEPTGDVGGGDRWCWHLLAK (UniProt P29728),-0.246,-0.237
NUP155_O75694_974_CITDTLQELVNQSK (UniProt O75694),-0.0265,-0.00466
OARD1_Q9Y530_38_TDSLAHCISEDCR (UniProt Q9Y530),0.0354,-0.125
NUSAP1_Q9BXS6_64_KGNENQDESQTSASSCDETEIQISNQEEAERQPLGHVTK (UniProt Q9BXS6),-0.424,-0.158
OGDH_Q02218_956_YPNAELAWCQEEHK (UniProt Q02218),-0.131,-0.149
OAT_P04181_93_YFDFLSSYSAVNQGHCHPK (UniProt P04181),0.0237,0.0378
NUP88_Q99567_561_DIAPPPEECLQLLSR (UniProt Q99567),-0.146,0.267

Target,probe-labelled cysteine peptide fold change (10 µM),probe-labelled cysteine peptide fold change (50 µM)
ODF2_Q5BJF6_364_LCMQIK (UniProt Q5BJF6),0.134,-0.067
OGFR_Q9NZT2_87_DCNGDTPNLSFYR (UniProt Q9NZT2),-0.203,0.0552
NUTF2_P61970_114_NINDAWVCTNDMFR (UniProt P61970),0.0967,0.0898
NUF2_Q9BZD4_377_TVIEDCNK (UniProt Q9BZD4),-0.234,-0.167
OGT_O15294_323_LCPTHADSLNNLANIKR (UniProt O15294),0.0634,-0.411
NUP107_P57740_78_QPDISCILGTGGK (UniProt P57740),-0.271,-0.718
OGA_O60502_166_RKLDQVSQFGCR (UniProt O60502),-0.11,-0.0253
NUTF2_P61970_80_IQHSITAQDHQPTPDSCIISMVVGQLK (UniProt P61970),0.0102,-0.0927
NUDT8_Q8WV74_71_CDPADQDVVHTALR (UniProt Q8WV74),-0.128,0.143
NUP93_Q8N1F7_209_IVNGHLQPNLVDLCASVAELDDK (UniProt Q8N1F7),0.0846,0.117
NUP88_Q99567_407_YHCTHEAGVHSVGLTWIHK (UniProt Q99567),0.126,0.178
OGA_O60502_863_SMMACLLSSLK (UniProt O60502),4.11e-05,-0.288
NUMB_P49757_611_HTEVPTGTCPVDPFEAQWAALENK (UniProt P49757),-0.152,-0.381
NUP43_Q8NFH3_365_SLSVNTLDVLGPCLVCGTDAEAIYVTR (UniProt Q8NFH3),0.403,0.827
NUP54_Q7Z3B4_171_GYFNNNIPPVEFTQENPFCR (UniProt Q7Z3B4),-0.213,-0.013
OGA_O60502_896_LGCFEIAK (UniProt O60502),0.187,-0.238
NVL_O15381_803_EASICALR (UniProt O15381),0.107,-0.0294
NUP153_P49790_871+874_CLACESAKPGTK (UniProt P49790),0.172,-0.334
NUP205_Q92621_1297_QLVEIILTACPQDLIQAEDR (UniProt Q92621),0.422,0.366
NUP155_O75694_1344_YVENPSQVLNCER (UniProt O75694),-0.166,-0.621
NUBP2_Q9Y5Y2_72_AVHQCDR (UniProt Q9Y5Y2),0.0354,-0.734

# A different layout for some results above:
Target | probe-labelled cysteine peptide fold change (10 µM) | probe-labelled cysteine peptide fold change (50 µM)
OGA_O60502_166_RKLDQVSQFGCR (UniProt O60502) | -0.11 | -0.0253
NUTF2_P61970_80_IQHSITAQDHQPTPDSCIISMVVGQLK (UniProt P61970) | 0.0102 | -0.0927
NUDT8_Q8WV74_71_CDPADQDVVHTALR (UniProt Q8WV74) | -0.128 | 0.143
NUP93_Q8N1F7_209_IVNGHLQPNLVDLCASVAELDDK (UniProt Q8N1F7) | 0.0846 | 0.117

# The list continues:

Target,probe-labelled cysteine peptide fold change (10 µM),probe-labelled cysteine peptide fold change (50 µM)
OGFOD1_Q8N543_64_RTPFSHEVIVMDMDPFLHCVIPNFIQSQDFLEGLQK (UniProt Q8N543),0.0867,-0.154
OGT_O15294_417_EMQDVQGALQCYTR (UniProt O15294),-0.0642,-0.366
NUS1_Q96E22_164_QQQELLGLDCSK (UniProt Q96E22),0.192,-0.0667
OCIAD1_Q9NX40_38_VFAECNDESFWFR (UniProt Q9NX40),0.0969,0.145
OAS3_Q9Y6K5_73_GGCDSELVIFLDCFK (UniProt Q9Y6K5),-0.116,0.158
NUP133_Q8WUM0_457_IVFNAQGDSVLGAGACGGVPIIFSR (UniProt Q8WUM0),-0.00853,0.118
NUMA1_Q14980_65_LDFVCSFLQK (UniProt Q14980),0.00767,0.238
NUMA1_Q14980_1673_EAEQTCR (UniProt Q14980),0.0546,0.0417
NUDT18_Q6ZVK8_100_EVKEEAGLHCEPETLLSVEER (UniProt Q6ZVK8),-0.346,-0.626
NUP50_Q9UKX7_181_HVNTNPLCDLTPIFK (UniProt Q9UKX7),0.0644,0.119
OCIAD2_Q56VL3_134_HCLLTCEECK (UniProt Q56VL3),0.0848,-0.201
NTPCR_Q9BSD7_101_NADCSSGPGQR (UniProt Q9BSD7),0.646,0.828
NUP98_P52948_1711_HIQQVDCSGNDLEQLHIK (UniProt P52948),0.166,0.0136
OLA1_Q9NTK5_75_VPVPDERFDFLCQYHK (UniProt Q9NTK5),0.24,-0.00208
NUDT7_P0C024_72_RAPGEVCFPGGK (UniProt P0C024),-0.0211,-0.558
OGA_O60502_181_SFALLFDDIDHNMCAADK (UniProt O60502),0.121,0.0336
OPA1_O60313_786_TQEQCVHNETK (UniProt O60313),-0.138,-0.322
NUMA1_Q14980-4_1729_SREPQAKPQLDLSIDSLDLSCEEGTPLSITR (UniProt Q14980),0.0396,-0.189
OGDH_Q02218_604_SMSCPSTGLTEDILTHIGNVASSVPVENFTIHGGLSR (UniProt Q02218),0.109,0.174
NUP160_Q12769_1309_VQNNLYHHCVINK (UniProt Q12769),-0.0693,0.339
OGT_O15294_315_GSVAEAEDCYNTALR (UniProt O15294),0.0959,0.062
